Assay results published in the supplement of paper PMC5949888.
Most values lie at the floor of the assay. Slopes are relative: functional sequences can read slightly below zero.

test system: Saccharomyces cerevisiae PS128 hsf1 delta, HSF1(1-493) fusion; assay: growth estimate (transactivation domain function in HSF1 fusion, heat-shock survival) (a.u. (slope of normalised read count over time)); higher = stronger growth at 37°C, i.e. more transactivation activity; conditions: library: random library

Row | Substance | growth estimate
1 | PDGRTRDGTWRHRS | < -0.25
2 | RIP | < -0.25
3 | KVTFNSEKRSTPGRAPAWKN | < -0.25
4 | TDSFWRRSGSANA | < -0.25
5 | YILP | < -0.25
6 | CMAITWVATLKYRLRDGNCI | < -0.25
7 | GAWPNRGNAKPVPHSDRS | < -0.25
8 | FNRYLL | < -0.25
9 | HALLITRSSTEAKPASGAYT | < -0.25
10 | CGGSERGSSGGEGV | < -0.25
11 | GVSYSYIGNGRALHMCNSQV | < -0.25
12 | VQASDPAKPTVSF | < -0.25
13 | LYRPLLFI | < -0.25
14 | FQLTWGDPGS | < -0.25
15 | QRSCRGRNIIIQDRYAPSTC | < -0.25
16 | LVTTLIAGGSGCGSLLPYFS | < -0.25
17 | HCVTVPPTLLRCGTLYCQLA | < -0.25
18 | RLDPKGVIDGSVSASTWSEC | < -0.25
19 | CQDGPPYDL | < -0.25
20 | RPHGSQNHDV | < -0.25
21 | PRMTRHRPSCIVLVHQWCTQ | < -0.25
22 | VRDCL | < -0.25
23 | TCFSPSSANLANTSGSMTRR | < -0.25
24 | DWLLVNITRKRLVCCVEALS | < -0.25
25 | CLSGSTKVVMHNGGDTGIP | -0.206
26 | APRCSLKASCIFCPSEASDQ | < -0.25
27 | WGRVLK | < -0.25

Row | Substance | growth estimate
28 | LAGHVFNPRPMTYATDYCCS | < -0.25
29 | NLCEVYRRGDFVSSRLYIAP | < -0.25
30 | QGIPDGIRRQTT | < -0.25
31 | PVSPLL | < -0.25
32 | PVNFPGLRLFSPEDSGNAPL | < -0.25
33 | DLTWWYGSSYPHGVIAASAT | < -0.25
34 | FTIHEVGGTKI | < -0.25
35 | SYGSDQRFEMFEARRHDVPG | < -0.25
36 | YSLGCLH | < -0.25
37 | CLKNTFATHCTVVVWGRTPY | < -0.25
38 | YTVRALEEVSAWRGFGKS | < -0.25
39 | AEICGRIMRDLQYGPQRRS | < -0.25
40 | YGS | < -0.25
41 | RVSAEARVGMQAARTQFVGS | < -0.25
42 | RYTRLRQPRDVTSLHLSHVR | < -0.25
43 | ALDRRRDECAFAC | < -0.25
44 | GYV | < -0.25
45 | GESLAVRQV | < -0.25
46 | ARKKVGKGAT | < -0.25
47 | TSPFVS | < -0.25
48 | MCVQLQWAGLWGVHG | < -0.25
49 | CNSAHMR | < -0.25
50 | PGRRPFAERWVMR | < -0.25
51 | CRRKVLLRQQRLYCWQELVH | < -0.25
52 | YLPTTRGSV | < -0.25
53 | LLGGLSVFQSGGYQSGPVQI | < -0.25
54 | TRRTWIAEAKSAHEIYLTVG | < -0.25

Looked up one by one from the entries so far, 2 records:
Row | Substance | growth estimate
31 | PVSPLL | < -0.25
50 | PGRRPFAERWVMR | < -0.25

Additional entries

Row | Substance | growth estimate
55 | GGSSSTLQAVVPCPILVRVT | < -0.25
56 | PSASEQGTCLRGITCKAGDY | < -0.25
57 | RASI | < -0.25
58 | RLLRKSHLLAVS | < -0.25
59 | RSRRDLGLPLGGCVSLRSVH | -0.0187
60 | IGKTVRVPIIRESRGLKVGP | < -0.25
61 | GGTFQWILRRMVSAMRGTGR | < -0.25
62 | GSTRSKLMGGLTRTPVMPTC | < -0.25
63 | PRTSRTHPQ | < -0.25
64 | SRLPVCARCRSLTQDRPDER | < -0.25
65 | NLRGLALAG | < -0.25
66 | RTFRPADGCSRDECTEVVRP | < -0.25
67 | DSVV | < -0.25
68 | TLHLFLLKYNLEKSYAGTDL | < -0.25
69 | SCLLEADHLKPVSSRLNSGG | < -0.25
70 | SRRPYRGPHARAGNDMKRR | < -0.25
71 | RTSSESSFSRRRHKRS | < -0.25
72 | LIVEGHRSERPPRESLIVAR | < -0.25
73 | MRPSYR | < -0.25
74 | DIRIASVTIRLD | < -0.25
75 | GSLRGSCWVVFLP | < -0.25
76 | GVPASSPSTKQQQDP | < -0.25
77 | SKLPRPWPTREQWIKKVGTA | < -0.25
78 | VAAEPRSVHHSNVCLKMM | < -0.25
79 | RLVASFTLRCRRKVARWVVS | < -0.25
80 | MSCTAGERKGY | < -0.25
